In patent US9872903B2, “Targeting thymidine kinase photosensitizer and pharmaceutical composition and use for cancer treatment thereof” (ZHEJIANG HISUN PHARMACEUTICAL CO., LTD., priority 2012, dated 2018):

System: in vivo tumor cells of PC3 line
Test: in vivo fluorescence imaging assay
Set-up: species or system mice
Settings: 0.5 μmol/kg, images at 4 h, 14 h, 24 h and 48 h, excitation 665 nm, emission 710-720 nm

Question: `CCCCCCOC(C)c1c(C)c2cc3nc(c4c5[nH]c(cc6nc(cc1[nH]2)C(C)=C6CC)c(C)c5C(=O)C4)C(CCC(=O)OCC1OC(n2cc(C)c(=O)[nH]c2=O)CC1O)C3C` (stereo not shown) [Compound 3, 17^3-thymidylyl-3-((1′-n-hexyloxy)ethyl)-3-devinyl-pyropheophorbide] was tested. Which “time after injection of best adsorption/imaging quality” value did it give?
Answer: The value was 24 h.
